# PubChem BioAssay AID1259405, NCATS – 2018
# Assay: 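Knock-downs that lift recombinant protein yield in hamster ovary cells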 (primary screen)
# Cell system: Chinese hamster CHO-K1 ovary cells with stable secreted eGFP expression
# Reagents: single siRNA against mouse genes, 0.8 pmol siRNA per well (2 µl of 400 nM stock)
# Duration: 3 days
# Measurement: 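Percent of the per-plate non-targeting control median for intracellular GFP per well by laser scanning cytometry and for cell viability by ATP luminescence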
# Direction: GFP, % of control: higher = more GFP per well, higher productivity; viability (ATP), % of control: higher = more viable cells (more ATP)
# Call rule: 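Called active when intracellular GFP, relative to negative control, is at or above 120%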
# Here is a random part of about 50,000 reagents. About 4,000 of them (8%) count as active. 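Mouse siRNA library applied to hamster cells; one well for each siRNA.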 A number with no mark means an inactive call. Reagents against one gene are numbered here.
gene,reagent no.,"GFP, % of control","viability (ATP), % of control"
Trit1,1,208 (active),92.6
Trit1,2,86,93.3
Trit1,3,101,86.9
Trit1,4,89.5,70.2
Trit1,5,76.1,77.5
Trit1,6,95.6,76.2
Amn,1,63.3,61.3
Amn,2,64.6,71.8
Amn,3,122 (active),79.9
Rccd1,1,70.9,81.6
Rccd1,2,89.7,87.8
Rccd1,3,86.5,71.5
Socs3,1,93.5,95.2
Socs3,2,77.8,91.2
Socs3,3,102,85.4
Mpped1,1,63.7,86.3
Mpped1,2,82.2,76.3
Mpped1,3,116,70.6
Imp4,1,51.5,67.8
Imp4,2,124 (active),53
Imp4,3,119,77.7
Rbm41,1,70.4,88.1
Rbm41,2,65.2,81.1
Rbm41,3,138 (active),74.8
L3mbtl2,1,90.2,59.4
L3mbtl2,2,82.7,38.3
L3mbtl2,3,70.4,67.4
Memo1,1,83,96.5
Memo1,2,70.6,91.2
Memo1,3,85.4,58.6
Ankrd33b,1,55.7,37.2
Ankrd33b,2,91.8,99.3
Ankrd33b,3,109,102
Fam3a,1,70.2,80.4
Fam3a,2,55.1,46.1
Fam3a,3,89.7,78.7
Surf4,1,66.9,55.7
Surf4,2,89.2,83.3
Surf4,3,90.9,97.2
Cbfa2t2,1,115,152
Cbfa2t2,2,39,47.2
Cbfa2t2,3,72.6,82.4
Wee2,1,115,92.1
Wee2,2,64.1,72.9
Wee2,3,67.2,71.9
Pkib,1,62.8,66.5
Pkib,2,103,94.5
Mmp17,1,90.5,103
Mmp17,2,93.9,63.6
Or6c207,1,68.5,54.7
Or6c207,2,67.7,82.3
Or6c207,3,62.5,82.1
Slc39a14,1,82.6,35.7
Slc39a14,2,122 (active),72.9
Slc39a14,3,54.5,68
Pias1,1,103,90.2
Pias1,2,120,90
Pias1,3,139 (active),144
Trp53rkb,1,153 (active),95
Trp53rkb,2,69.8,86.2
Trp53rkb,3,78.5,85.2
Slc1a4,1,88,78.9
Slc1a4,2,77.7,73.9
Slc1a4,3,60.1,85.6
Abtb2,1,133 (active),117
Abtb2,2,56,88.2
Adora1,1,104,86.8
Adora1,2,70.8,71.5
Adora1,3,89.3,62.9
4930465K10Rik,1,82.7,58.4
4930465K10Rik,2,134 (active),98.4
4930465K10Rik,3,61.6,71.9
Btn2a2,1,47.8,93
Btn2a2,2,90.7,99.2
Eif5,1,79.8,56.1
Eif5,2,113,70.2
Eif5,3,107,121
Csn1s2b,1,90.1,69.1
Csn1s2b,2,62.4,78.7
Csn1s2b,3,107,104
Mbnl3,1,52.9,67.5
Mbnl3,2,135 (active),97.5
Mbnl3,3,80.9,57.6
Rad54l,1,55.3,70.4
Rad54l,2,80.9,68.4
Rad54l,3,72.1,96.5

Already shown: 6 of the entries above.
gene,reagent no.,"GFP, % of control","viability (ATP), % of control"
Fam3a,3,89.7,78.7
Surf4,1,66.9,55.7
Surf4,2,89.2,83.3
Surf4,3,90.9,97.2
Cbfa2t2,1,115,152
Cbfa2t2,2,39,47.2
